Read-outs that look alike come from different tables or passages of the source.

The source of these data is patent US8338616B2, “Thiazoliums and their use for treating protein aging associated diseases” (Beijing Molecule Science And Technology Co., Ltd., priority 2008, dated 2012).

In one data set the test system is diabetic rats. The following applies: 4 weeks. The method, then: Rats were anesthetized with pentobarbital sodium injection (0.8%, 50 mg/kg), subjected to tracheal cannula, heparin anticoagulation, right common carotid artery cannula, communicated with Biopac physiological recorder via is pressure transducers to record blood pressure; subjected to thoracotomy at middle of sternum, separation of ascending aorta which was covered with pulse Doppler probe, and the pulse Doppler rheometer was linked to the Biopac physiological recorder for real-time recording and calculating hemodynamic parameters by the software of Biopac (Acknowledge, Version 3): systolic blood pressure (SBP), diastolic blood pressure (DBP), heart rate (HR), cardiac output
(CO), cardiac index (CI), total peripheral resistance (TPR), total peripheral resistance index (TPR Index), stroke volume (SV) and system arterial compliance (SAC), etc. After 10 min of postoperative stabilization, these parameters were recorded continuously, and mean values for 30 s were used as the measured values of these parameters.
Formula for calculating some of hemodynamic parameters: TPR=mean arterial pressure (MAP)/CO SAC=SV/(SBP−DBP)

Data set [1] has as its system NaCl treated diabetic rats modeled with heart failure. Particulars: 10 weeks. The method, then:
Second batch: NaCl treated diabetic rats modeled with heart failure for 20 weeks and normal control rats synchronically and conventionally drinking water were divided into 5 groups: normal control rats synchronically and conventionally drinking water group (Normal Control), model control group (Model Control), the compound A group (ig, 9 mg/kg), the compound A group (ig, 36 mg/kg), administered with drug once per day for consecutive 10 weeks. The pharmacodynamic evaluation on left ventricular function was conducted by using a ventricular chatheterization method.
SPSS statistic software was used to analyze and treat data, and all data were expressed in mean±standard deviation (Mean±SD).

For `Cc1csc[n+]1CC(=O)O.[Na+]` [A, 3-carboxymethyl-4-methyl-thiazolium bromide sodium], the Body weight in the data set with diabetic rats (9 mg/kg i.g.) is reported as 341 ± 27^ g; in the data set on diabetic rats (18 mg/kg i.g.), 344 ± 24^ g; in the data set on diabetic rats (36 mg/kg i.g.), 342 ± 28^ g; in data set [1] (9 mg/kg ig), 282 ± 47 g; in data set [1] (36 mg/kg ig), 299 ± 42 g.
